One assay relates to SJSA-1. The assay is described as follows: Cell viability assay (MTT), SJSA-1. The conditions noted are these: read-out: SJSA-1 EC50 (72 h).
A further assay has as its system RKO-E6. The assay is described as follows: Cell viability assay (MTT), RKO-E6. Particulars: read-out: RKO-E6 EC50 (72 h), RKO-E6, 72 h.
The subject of a further assay is SW-480. The assay is described as follows: Cell viability assay (MTT), SW-480. Particulars: read-out: SW480 EC50 (6 days), SW480, 6 days.
The next assay concerns the target MDMX (Homo sapiens, UniProt O15151). The assay is described as follows: Competitive fluorescence polarization assay for MDMX. The assay is classed as binding. A general note: In fluorescence polarisation assays a small probe gives low polarisation when free and higher when bound to something large.
The next assay concerns RKO. The assay is described as follows: Cell viability assay (MTT), RKO. The conditions noted are these: read-out: RKO EC50 (72 h).
The target in another assay is MDM2 (Homo sapiens, UniProt Q00987). The assay is described as follows: Competitive fluorescence polarization assay for MDM2. The assay is classed as binding. The conditions noted are these: for Ki: read-out: Ki (MDM2).

The chains behind the UniProt entries cited, without tags or fusion partners. Residues count along the entry.
UniProt O15151, 1-125 limits assumed: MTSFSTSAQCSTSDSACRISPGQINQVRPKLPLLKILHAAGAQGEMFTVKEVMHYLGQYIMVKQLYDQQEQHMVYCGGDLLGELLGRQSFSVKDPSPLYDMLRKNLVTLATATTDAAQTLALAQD
UniProt Q00987, 1-125 limits assumed: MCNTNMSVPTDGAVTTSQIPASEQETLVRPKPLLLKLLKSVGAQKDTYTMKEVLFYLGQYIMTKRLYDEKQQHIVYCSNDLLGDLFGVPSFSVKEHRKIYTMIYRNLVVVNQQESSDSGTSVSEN

The structures given here were assigned with low confidence; some may be wrong.

Usually EC50 stands for the concentration at which the effect is half-maximal. As usually defined, the IC50 is the concentration that gives 50% inhibition. As usually defined, the Ki is the dissociation constant of the complex between target and ligand, obtained from inhibition or displacement.

As to `CC(=O)N[C@@H](C)C(=O)N[C@@H](CO)C(=O)N[C@@H](CCC(N)=O)C(=O)N[C@@H](CCC(N)=O)C(=O)N[C@H](C(=O)N[C@@H](Cc1ccccc1)C(=O)N[C@]1(C)CCCCCCC=CCCC[C@@](C)(C(=O)N[C@@H](CCC(N)=O)C(=O)N[C@@H](CC(N)=O)C(N)=O)NC(=O)[C@H](CC(C)C)NC(=O)[C@H](CC(C)C)NC(=O)[C@H](CCCNC(=N)N)NC(=O)[C@H](Cc2c[nH]c3ccccc23)NC(=O)[C@H](CC(C)C)NC(=O)[C@H](CC(N)=O)NC1=O)[C@@H](C)O`, the EC50 in the assay with SJSA-1 fell in the range of 15000 to 30000 nM.
The same measure, in the same setting: the figure for `CC(=O)N[C@@H](CCC(N)=O)C(=O)N[C@@H](CO)C(=O)N[C@@H](CCC(N)=O)C(=O)N[C@@H](CCC(N)=O)C(=O)N[C@H](C(=O)N[C@@H](Cc1ccccc1)C(=O)N[C@]1(C)CCCCCCC=CCCC[C@@](C)(C(=O)N[C@@H](CCC(N)=O)C(=O)N[C@@H](CC(N)=O)C(N)=O)NC(=O)[C@H](CC(C)C)NC(=O)[C@H](CC(C)C)NC(=O)[C@H](CCCNC(=N)N)NC(=O)[C@H](Cc2c[nH]c3ccccc23)NC(=O)[C@H](CC(C)C)NC(=O)[C@H](C)NC1=O)[C@@H](C)O` is 5000 to 15000 nM.
Turning to `CC(=O)N[C@@H](CC(C)C)C(=O)N[C@H](C(=O)N[C@H](C(=O)N[C@]1(C)CCCCCCC=CCCC[C@@](C)(C(=O)N[C@@H](CO)C(N)=O)NC(=O)[C@H](CC(C)C)NC(=O)[C@H](CCC(N)=O)NC(=O)[C@H](C)NC(=O)[C@H](Cc2c[nH]c3ccccc23)NC(=O)[C@H](Cc2ccc(O)cc2)NC(=O)[C@H](Cc2cnc[nH]2)NC1=O)C(c1ccccc1)c1ccccc1)[C@@H](C)O`, the EC50 in the assay on RKO-E6 was 15000 to 30000 nM; in the assay on SW-480, less than 5000 nM; with RKO, less than 5000 nM. For the same compound, the IC50 at MDMX (read-out: IC50 (MDMX)) and on MDM2 (read-out: IC50 (MDM2)) was 10 to 100 nM in each case. Also, the Ki on MDMX (read-out: Ki (MDMX)) was 10 to 100 nM; at MDM2, less than 10 nM.
`CC(=O)N[C@@H](CC(C)C)C(=O)N(C)CC(=O)N[C@@H](Cc1ccccc1)C(=O)N[C@]1(C)CCCCCCC=CCCC[C@@](C)(C(=O)N[C@@H](CO)C(N)=O)NC(=O)[C@H](CC(C)C)NC(=O)[C@H](CCC(N)=O)NC(=O)[C@H](C)NC(=O)[C@H](Cc2c[nH]c3ccccc23)NC(=O)[C@H](Cc2ccc(O)cc2)NC(=O)[C@H](C)NC1=O`: the EC50 with SJSA-1 is less than 5000 nM. Also, the Ki at MDM2 lay in the range of 10 to 100 nM.
